From PubChem BioAssay AID2685 (National Center for Advancing Translational Sciences (NCATS), 2010)
The other results are listed elsewhere or left out. Shown are side measurements of this screen, not its main read-out; they come without a call. Compounds called inactive in the main read-out are mostly missing here. Potencies come from curve fits of mixed quality, noted in brackets.

Assay: qHTS Assay for Lipid Storage Modulators in Drosophila S3 Cells;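 for cell number change: cells counted by Cell Tracker Red CMTPX staining in the red channel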
Settings: BODIPY lipid droplet fluorescence, 18-24 h; for cell number change: measured here: cell count max response, cells fed with added oleic acid
Summary of the method: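 Drosophila S3 cells got compounds at several concentrations plus oleic acid (400 uM solution). Laser-scanning cytometry with 488 nm excitation read lipid droplets at 500-530 nm and cells at 575-640 nm. Percent activity was relative to 20 uM Triacsin C.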

[1] = measured here: cell number channel AC50, cells fed with added oleic acid
[2] = measured here: lipid fluorescence (Fed channel) AC50, cells fed with added oleic acid

| SMILES | cell number change | AC50 [1] | AC50 [2] |
| --- | --- | --- | --- |
| CS(=O)(=O)c1ccc(C(=O)OCc2nnc(-c3ccc(Cl)cc3)o2)cc1[N+](=O)[O-] | -31% | 0.0206 µM [falling, full curve, poor fit] | 0.058 µM [falling, full curve, poor fit] |
| Cc1nc2ccc(Br)cc2c(-c2ccccc2)c1C(=O)O | -50.6% | 7.31 µM [falling, partial curve] | 25.9 µM [falling, single point] |
| CCOc1ccc(S(=O)(=O)NCCN2CCOCC2)c2ccccc12 | -11.6% |  | 4.61 µM [falling, full curve, poor fit] |
| O=C(CNC(=O)c1ccco1)NCC(=O)OCc1cccc(C(=O)Oc2ccccc2)c1 | -106% | 29.1 µM [falling, single point] | 29.1 µM [falling, single point] |
| CCOC(=O)N1CCN(C(=O)c2cc(OCC)c(OCC)c(OCC)c2)CC1 | -38.1% | 9.2 µM [falling, partial curve] | 2.91 µM [falling, partial curve] |
| CC(C)Oc1ccc(C2CC(=O)N(c3ccccc3)C2=O)cc1 (stereo not given) | 46% |  | 2.06 µM [falling, partial curve] |
| CCS(=O)(=O)N1CCN(S(=O)(=O)c2ccc(S(=O)(=O)NC3CC3)cc2)CC1 |  |  | 29.1 µM [falling, partial curve] |
| Cc1ccccc1NC(=O)C1C2CCCC1C2c1ccccc1 (stereo not given) | -14.7% |  | 0.651 µM [falling, full curve] |
| CC1CC(NC(=O)C2(C)CC2(Cl)Cl)CC(C)(C)C1 (stereo not given) | 3.65% | 0.366 µM [falling, full curve] | 0.13 µM [falling, full curve] |
| CC(C)(C)NC(=O)CSc1nc(N)cc(=O)[nH]1 | -40.5% | 0.184 µM [falling, full curve, poor fit] |  |
| CCN1C(=O)Cc2cc(S(=O)(=O)NCCc3ccccc3)ccc21 | 20% |  |  |
| O=C(Nc1ccccc1)Nc1ccc(F)c([N+](=O)[O-])c1 | -22% |  | 0.082 µM [rising, full curve, poor fit] |
| CN1C(=O)C2(C(C#N)=C(N)N(c3cc(Cl)cc(Cl)c3)C3=C2C(=O)CCC3)c2ccccc21 (stereo not given) | -32.6% | 0.82 µM [falling, full curve, poor fit] | 29.1 µM [falling, single point] |
| CCOc1cccc2c1OC1(C)CC2NC(=O)N1c1cccc(C(=O)NCc2ccccn2)c1 (stereo not given) | 6.8% |  |  |
| N#Cc1ccc(S(=O)(=O)N2CCN(CC(=O)Nc3ccccc3C(=O)NC3CC3)CC2)cc1 | 4.39% |  |  |
| CCOC(=O)c1c(NC(=O)CSc2nnc(-c3c[nH]c4ccccc34)n2CC)sc2c1CCCC2 | -6.64% |  | 2.31 µM [rising, partial curve] |
| COc1ccc(S(=O)(=O)Nc2ccccn2)cc1C | 5.1% |  | 0.291 µM [rising, full curve, poor fit] |
| Nc1cc([N+](=O)[O-])ccc1N1C(=O)CCCC1=O | 12.8% |  | 6.51 µM [falling, single point] |

Part of the list above, reduced to cell number change.
SMILES	cell number change
CN1C(=O)C2(C(C#N)=C(N)N(c3cc(Cl)cc(Cl)c3)C3=C2C(=O)CCC3)c2ccccc21 (stereo not given)	-32.6%
CCOc1cccc2c1OC1(C)CC2NC(=O)N1c1cccc(C(=O)NCc2ccccn2)c1 (stereo not given)	6.8%

Further entries follow.

| SMILES | cell number change | AC50 [1] | AC50 [2] |
| --- | --- | --- | --- |
| O=C(COc1ccccc1Cl)Nc1nnc(S(=O)(=O)N2CCCCCC2)s1 | 19.8% |  | 25.9 µM [falling, single point] |
| O=C(CCN1C(=O)/C(=C/c2ccc(F)cc2)SC1=S)NCCc1ccc(O)cc1 | 9.9% |  | 0.13 µM [rising, single point] |
| Cn1c(CCC(=O)OCC(=O)NCC(F)(F)F)nc(=O)c2ccccc21 | -33.9% | 2.59 µM [falling, full curve] | 3.66 µM [falling, full curve] |
| CC(C)OP(=O)(OC(C)C)C(O)c1cccc([N+](=O)[O-])c1 (stereo not given) | -2.69% |  |  |
| Cn1c(=O)cc(SCC(=O)N2CCCC2)c2ccc(Cl)cc21 | -17.9% |  | 32.6 µM [falling, partial curve, poor fit] |
| O=C(NNC(=O)c1cccc(-n2cccc2)c1)c1ccccc1 | 2.88% |  | 1.84 µM [rising, partial curve, poor fit] |
| Cc1c(S(=O)(=O)N2CCCC(C(=O)O)C2)cnn1C (stereo not given) |  | 6.51 µM [falling, single point] |  |
| COc1cc(C(CC(=O)Nc2ccccn2)N2Cc3ccccc3C2=O)cc(OC)c1OC (stereo not given) | -34% |  | 0.00517 µM [falling, full curve, poor fit] |
| CNC(=O)C1(C(F)(F)F)C/C(=C\CCO)CCCO1 (stereo not given) | 23.6% | 0.206 µM [rising, full curve, poor fit] | 5.8 µM [rising, full curve] |
| O=C(CN1CC[n+]2c(-c3cccs3)csc21)c1ccc(Br)cc1 | 33.5% | 10.3 µM [rising, partial curve, poor fit] |  |
| CCCCn1c(N)c(S(=O)(=O)c2ccc(C)cc2)c2nc3ccccc3nc21 | -40.8% | 20.6 µM [falling, single point] | 3.66 µM [rising, single point] |
| COc1ccccc1N(CC(=O)Nc1ccc2c(c1)OCO2)S(=O)(=O)c1ccccc1 | -13.6% | 2.59 µM [falling, single point] | 6.51 µM [falling, single point] |
| CC(C)(C)NC(=O)CN(C(=O)CS(=O)CC(=O)Nc1ccc(F)cc1)c1ccccc1 (stereo not given) | 1.05% | 6.51 µM [falling, single point] | 6.51 µM [falling, single point] |
| CCOc1cc(NC(=S)Nc2ccccc2)c(OCC)cc1NC(=O)c1ccccc1 | -18.4% |  |  |
| COc1ccc(CNC(=O)C2CCN(S(=O)(=O)c3ccc4c(c3)CC(C)N4C(=O)C3CC3)CC2)cc1 (stereo not given) | 0.76% |  | 2.91 µM [rising, full curve, poor fit] |
| O=S(=O)(c1ccc(-c2nnco2)cc1)N1CCCCC1 | 1.39% |  |  |
| Cc1cc(Cl)ccc1Oc1nc(-c2ccccc2)ncc1S(C)(=O)=O |  |  | 0.58 µM [rising, single point] |
| COc1cc(CN2CCCC(C(=O)c3ccc4c5c(cccc35)CC4)C2)cc(OC)c1O (stereo not given) | -59.7% | 29.1 µM [falling, single point] | 0.103 µM [rising, full curve, poor fit] |
